Binding data for 1 substance are collected here from paper PMC5083101.

Amino acid sequences for entries named in this document (tags omitted). Residues count along the entry.
UniProt P02769, residues 25-607: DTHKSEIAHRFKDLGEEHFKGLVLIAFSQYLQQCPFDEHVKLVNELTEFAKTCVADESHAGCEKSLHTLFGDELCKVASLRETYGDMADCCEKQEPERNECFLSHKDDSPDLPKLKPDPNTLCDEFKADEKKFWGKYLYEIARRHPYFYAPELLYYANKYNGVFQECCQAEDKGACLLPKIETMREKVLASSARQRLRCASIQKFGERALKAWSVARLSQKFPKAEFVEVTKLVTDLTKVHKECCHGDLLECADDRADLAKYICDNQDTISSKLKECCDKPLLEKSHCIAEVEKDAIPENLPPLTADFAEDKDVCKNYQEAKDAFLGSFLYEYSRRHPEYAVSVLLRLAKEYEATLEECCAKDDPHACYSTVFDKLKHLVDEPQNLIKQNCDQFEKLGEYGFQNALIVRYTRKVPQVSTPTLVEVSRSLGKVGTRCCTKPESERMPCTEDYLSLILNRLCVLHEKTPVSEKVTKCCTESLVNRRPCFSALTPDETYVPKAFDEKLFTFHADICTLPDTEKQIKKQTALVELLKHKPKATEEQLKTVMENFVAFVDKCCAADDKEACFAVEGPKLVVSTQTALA
UniProt O19132: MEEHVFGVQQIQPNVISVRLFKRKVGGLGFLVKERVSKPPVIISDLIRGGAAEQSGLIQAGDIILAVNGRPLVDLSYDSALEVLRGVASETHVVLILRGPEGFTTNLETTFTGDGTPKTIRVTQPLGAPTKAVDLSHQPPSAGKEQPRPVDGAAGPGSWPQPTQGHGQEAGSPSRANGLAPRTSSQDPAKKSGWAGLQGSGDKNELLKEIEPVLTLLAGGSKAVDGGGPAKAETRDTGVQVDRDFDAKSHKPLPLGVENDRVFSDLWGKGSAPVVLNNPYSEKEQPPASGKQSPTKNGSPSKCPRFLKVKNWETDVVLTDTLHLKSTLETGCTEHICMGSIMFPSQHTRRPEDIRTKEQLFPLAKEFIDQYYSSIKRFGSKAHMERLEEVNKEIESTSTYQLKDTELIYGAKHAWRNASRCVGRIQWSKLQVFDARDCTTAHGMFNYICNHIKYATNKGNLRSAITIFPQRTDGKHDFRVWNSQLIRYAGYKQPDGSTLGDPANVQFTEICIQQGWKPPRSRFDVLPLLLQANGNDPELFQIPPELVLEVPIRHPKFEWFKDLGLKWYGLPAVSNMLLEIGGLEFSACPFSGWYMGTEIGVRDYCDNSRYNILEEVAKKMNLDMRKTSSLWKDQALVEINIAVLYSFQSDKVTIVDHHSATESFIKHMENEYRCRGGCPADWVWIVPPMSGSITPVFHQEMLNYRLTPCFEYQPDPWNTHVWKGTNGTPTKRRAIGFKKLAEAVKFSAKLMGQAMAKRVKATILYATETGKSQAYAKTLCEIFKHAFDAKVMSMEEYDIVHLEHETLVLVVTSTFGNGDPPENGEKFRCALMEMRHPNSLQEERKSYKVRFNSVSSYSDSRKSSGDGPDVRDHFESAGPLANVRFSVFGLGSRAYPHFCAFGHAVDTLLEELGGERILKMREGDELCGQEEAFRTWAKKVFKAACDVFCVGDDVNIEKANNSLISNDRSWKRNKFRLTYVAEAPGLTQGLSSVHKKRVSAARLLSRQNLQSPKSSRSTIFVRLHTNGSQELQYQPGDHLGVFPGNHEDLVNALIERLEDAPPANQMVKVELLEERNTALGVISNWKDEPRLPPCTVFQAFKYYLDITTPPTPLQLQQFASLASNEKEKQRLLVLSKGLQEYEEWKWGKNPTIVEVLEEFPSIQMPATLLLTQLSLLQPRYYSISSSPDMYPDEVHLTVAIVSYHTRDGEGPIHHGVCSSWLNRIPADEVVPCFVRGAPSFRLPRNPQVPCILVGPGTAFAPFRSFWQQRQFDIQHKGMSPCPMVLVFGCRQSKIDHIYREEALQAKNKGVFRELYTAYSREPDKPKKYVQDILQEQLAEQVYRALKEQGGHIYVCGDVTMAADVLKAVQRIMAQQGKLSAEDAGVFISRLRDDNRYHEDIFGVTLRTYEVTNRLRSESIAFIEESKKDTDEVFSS

In assay [1] the target is T1, alpha-dystroglycan (rabbit skeletal muscle) (rabbit (endogenous in skeletal muscle)) (UniProt Q28685).
T1 sequence: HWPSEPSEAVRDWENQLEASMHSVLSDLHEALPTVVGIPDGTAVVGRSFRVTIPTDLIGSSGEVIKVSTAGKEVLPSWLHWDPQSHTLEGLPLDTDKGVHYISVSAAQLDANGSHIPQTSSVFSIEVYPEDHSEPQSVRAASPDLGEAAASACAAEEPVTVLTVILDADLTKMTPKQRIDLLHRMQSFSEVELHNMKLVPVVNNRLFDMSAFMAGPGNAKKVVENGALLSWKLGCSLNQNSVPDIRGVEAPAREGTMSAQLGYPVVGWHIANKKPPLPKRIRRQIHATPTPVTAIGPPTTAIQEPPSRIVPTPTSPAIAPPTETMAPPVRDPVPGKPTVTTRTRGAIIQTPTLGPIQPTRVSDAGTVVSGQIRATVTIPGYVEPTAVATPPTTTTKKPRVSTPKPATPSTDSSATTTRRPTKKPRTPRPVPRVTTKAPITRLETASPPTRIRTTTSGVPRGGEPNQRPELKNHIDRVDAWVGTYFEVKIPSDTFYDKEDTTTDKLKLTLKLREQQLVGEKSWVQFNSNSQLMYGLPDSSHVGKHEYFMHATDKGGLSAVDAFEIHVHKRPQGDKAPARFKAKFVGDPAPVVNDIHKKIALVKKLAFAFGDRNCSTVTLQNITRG
In words: co-IP; anti-α-DG antibody IIH6 coupled to CNBr-activated Sepharose; WGA-enriched, digitonin-solubilised rabbit skeletal muscle microsomes; 0.1% digitonin, 50 mM Tris-HCl pH 7.4, 150 mM NaCl; eluted in 0.1 M triethylamine pH 11.5; Western blot. Background: A western blot detects proteins with antibodies after separation by electrophoresis.

In assay [2] the target is bovine serum albumin (bovine) (UniProt P02769). In words: pull-down; negative control of the immunoprecipitation: BSA coupled to CNBr-activated Sepharose; WGA-enriched, digitonin-solubilised rabbit skeletal muscle microsomes; 0.1% digitonin, 50 mM Tris-HCl pH 7.4, 150 mM NaCl; Western blot; only the target purified.

No constants are given. Whether binding was seen depends on the method and setting. Binding seen in cells or lysates may run through a third protein. Some entries that bind do so weakly or less than the wild type.

As to “neuronal nitric oxide synthase (rabbit skeletal muscle) (from UniProt O19132 1-1435) (enzyme)”, the figures for the binding entry in assay [1] and in assay [2] were “binds” and “no binding”, respectively.
